Measured values from PubChem BioAssay AID504467 (National Center for Advancing Translational Sciences (NCATS), 2011).
The whole screen tested about 330,000 compounds, of which about 7,700 (2.3%) were called active. Only results without a clear call are listed here; the source files them as inconclusive. Calls come from the whole dose curve; as a rule, active = well fitted inhibition curve with a large enough effect; inconclusive = small, poorly fitted or top-dose-only effect, or effect the other way; inactive = flat fitted curve, though single readings scatter. Some results for these compounds are left out of this collection, so the calls shown say nothing about other tests.

Assay: qHTS screen for small molecules that inhibit ELG1-dependent DNA repair in human embryonic kidney (HEK293T) cells expressing luciferase-tagged ELG1; note: nearly all actives have a fitted effect of over 55% in size
Conditions: HEK293T ELG1-luciferase reporter, luminescence, 16 h; DNA damage induced by 5-fluorouridine
Potency is the fitted concentration of half-maximal effect.

Compound	Potency
CC(C)Oc1ccc(C(=O)NCC2(N(C)C)CCCCC2)cc1	inconclusive: 16.4 µM
COc1cccc(C(=O)NCC2(N3CCCCC3)CCCCC2)c1	inconclusive: 14.6 µM
O=C(NCC1(N2CCCCC2)CCCCC1)c1cccc(Cl)c1	inconclusive: 1.64 µM
O=C(NCC1(N2CCCCC2)CCCCC1)c1cc(F)c(F)cc1Cl	inconclusive: 18.3 µM
O=C(NCC1(N2CCCCC2)CCCCC1)c1cccc(Br)c1	inconclusive: 2.06 µM
CCCCC(CC)C(=O)N1CCN(C/C=C/c2ccccc2)CC1 (stereo unspecified)	inconclusive: 32.6 µM
